From article PMC2815737
These are yes or no findings as the source states them, for the method shown. Binding seen in cells or lysates may run through a third protein. Some entries that bind do so weakly or less than the wild type.

By UniProt entry, the sequences of proteins in these tests, tags left out.
UniProt O35099: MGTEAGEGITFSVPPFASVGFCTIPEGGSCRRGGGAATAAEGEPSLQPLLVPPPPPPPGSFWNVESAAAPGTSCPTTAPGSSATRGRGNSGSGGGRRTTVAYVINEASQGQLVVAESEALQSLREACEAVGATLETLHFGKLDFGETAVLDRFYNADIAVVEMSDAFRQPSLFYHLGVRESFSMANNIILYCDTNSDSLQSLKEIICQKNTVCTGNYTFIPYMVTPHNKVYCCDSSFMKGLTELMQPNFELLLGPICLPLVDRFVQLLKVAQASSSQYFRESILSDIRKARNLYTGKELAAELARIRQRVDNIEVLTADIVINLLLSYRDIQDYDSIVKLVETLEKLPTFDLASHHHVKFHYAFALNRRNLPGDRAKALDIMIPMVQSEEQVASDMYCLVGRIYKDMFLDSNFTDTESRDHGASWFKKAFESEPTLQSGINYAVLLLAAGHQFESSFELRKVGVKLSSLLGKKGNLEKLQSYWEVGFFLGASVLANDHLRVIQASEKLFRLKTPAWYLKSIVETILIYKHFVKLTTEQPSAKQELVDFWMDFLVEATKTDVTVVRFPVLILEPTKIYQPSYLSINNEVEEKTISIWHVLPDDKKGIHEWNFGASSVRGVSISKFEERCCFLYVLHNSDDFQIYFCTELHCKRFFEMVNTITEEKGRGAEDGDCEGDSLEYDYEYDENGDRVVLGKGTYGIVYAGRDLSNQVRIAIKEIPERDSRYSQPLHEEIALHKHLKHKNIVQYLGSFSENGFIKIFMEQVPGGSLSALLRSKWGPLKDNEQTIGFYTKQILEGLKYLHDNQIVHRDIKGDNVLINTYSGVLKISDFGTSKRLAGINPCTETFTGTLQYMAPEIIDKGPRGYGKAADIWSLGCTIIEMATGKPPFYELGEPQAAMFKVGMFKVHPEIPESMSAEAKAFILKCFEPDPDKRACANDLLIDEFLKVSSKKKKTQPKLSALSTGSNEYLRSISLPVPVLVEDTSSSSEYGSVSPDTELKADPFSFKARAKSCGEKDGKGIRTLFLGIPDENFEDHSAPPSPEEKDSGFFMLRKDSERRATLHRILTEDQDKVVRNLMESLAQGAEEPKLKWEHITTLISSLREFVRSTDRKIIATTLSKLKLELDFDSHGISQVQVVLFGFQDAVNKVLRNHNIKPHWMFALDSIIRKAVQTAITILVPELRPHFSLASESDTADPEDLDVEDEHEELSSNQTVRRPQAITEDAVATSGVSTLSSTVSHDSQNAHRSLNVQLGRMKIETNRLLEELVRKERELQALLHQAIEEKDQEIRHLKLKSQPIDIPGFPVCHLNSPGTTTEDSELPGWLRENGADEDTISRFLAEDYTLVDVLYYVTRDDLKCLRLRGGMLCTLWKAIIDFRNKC

Experiments:
[1] = target: ASK1 (mouse (endogenous in tail fibroblasts)) (UniProt O35099); assay: co-IP; as a1, but young wild-type fibroblasts treated with 1 mM H2O2 for 30 min before extraction
[2] = target: ASK1 (mouse (endogenous in tail fibroblasts)) (UniProt O35099); assay: co-IP; anti-ASK1 antibody with protein A agarose on 200 ug pooled fibroblast protein from 3 samples, 4 C overnight, beads washed 4x with PBS, Trx detected by Western blot; young (4-6 mos) wild-type and Ames dwarf fibroblasts, untreated or treated with rotenone (5 or 20 uM, 60 min), 20 mM 3-NPA, antimycin A (50 uM, 120 min) or, in dwarf cells, H2O2 (1 mM, 30 min)

binding [1]: binds weakly
B1: thioredoxin (protein, UniProt P10639 1-105)
chain: MVKLIESKEAFQEALAAAGDKLVVVDFSATWCGPCKMIKPFFHSLCDKYSNVVFLEVDVDDCQDVAADCEVKCMPTFQFYKKGQKVGEFSGANKEKLEASITEYA
binding [2]: binds
